Measured values published in the supplement of paper PMC10849652.
Some of the results follow.

Chains of the proteins cited; added tags and fusions are not shown. Lines headed by an entry give the natural chain unless they say otherwise; changes in a name come on top.
UniProt Q96KP1: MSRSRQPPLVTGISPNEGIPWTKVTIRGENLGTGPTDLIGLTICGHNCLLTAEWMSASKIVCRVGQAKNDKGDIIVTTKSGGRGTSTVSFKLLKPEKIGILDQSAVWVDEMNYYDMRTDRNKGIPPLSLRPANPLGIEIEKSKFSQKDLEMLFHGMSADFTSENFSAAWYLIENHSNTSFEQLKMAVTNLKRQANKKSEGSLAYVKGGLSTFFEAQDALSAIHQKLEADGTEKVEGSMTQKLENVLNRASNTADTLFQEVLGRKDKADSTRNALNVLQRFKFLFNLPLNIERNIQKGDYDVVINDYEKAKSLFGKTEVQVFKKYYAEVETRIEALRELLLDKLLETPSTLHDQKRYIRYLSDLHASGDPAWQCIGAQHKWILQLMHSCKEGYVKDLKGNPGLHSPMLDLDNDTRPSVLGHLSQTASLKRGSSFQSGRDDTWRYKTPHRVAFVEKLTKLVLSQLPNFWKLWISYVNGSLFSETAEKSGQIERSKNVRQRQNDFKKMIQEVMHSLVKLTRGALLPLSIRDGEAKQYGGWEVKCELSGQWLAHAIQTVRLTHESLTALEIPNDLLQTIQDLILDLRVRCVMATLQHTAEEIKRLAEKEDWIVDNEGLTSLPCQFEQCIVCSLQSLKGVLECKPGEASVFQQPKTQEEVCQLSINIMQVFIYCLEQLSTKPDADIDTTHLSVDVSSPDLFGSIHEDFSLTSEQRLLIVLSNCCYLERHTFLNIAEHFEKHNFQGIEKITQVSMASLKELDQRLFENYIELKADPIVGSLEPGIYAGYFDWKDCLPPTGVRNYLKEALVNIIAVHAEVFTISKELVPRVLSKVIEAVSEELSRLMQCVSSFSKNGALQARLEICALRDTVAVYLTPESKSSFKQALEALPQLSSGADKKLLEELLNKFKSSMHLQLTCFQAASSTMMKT
UniProt Q9NQT4, whole entry, looked up: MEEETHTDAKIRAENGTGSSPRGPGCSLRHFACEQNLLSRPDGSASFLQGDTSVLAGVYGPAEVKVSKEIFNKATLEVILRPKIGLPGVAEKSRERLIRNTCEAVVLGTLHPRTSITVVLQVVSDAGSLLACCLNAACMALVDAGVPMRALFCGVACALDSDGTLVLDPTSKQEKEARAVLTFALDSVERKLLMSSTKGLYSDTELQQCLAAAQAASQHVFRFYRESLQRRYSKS
UniProt Q9C073: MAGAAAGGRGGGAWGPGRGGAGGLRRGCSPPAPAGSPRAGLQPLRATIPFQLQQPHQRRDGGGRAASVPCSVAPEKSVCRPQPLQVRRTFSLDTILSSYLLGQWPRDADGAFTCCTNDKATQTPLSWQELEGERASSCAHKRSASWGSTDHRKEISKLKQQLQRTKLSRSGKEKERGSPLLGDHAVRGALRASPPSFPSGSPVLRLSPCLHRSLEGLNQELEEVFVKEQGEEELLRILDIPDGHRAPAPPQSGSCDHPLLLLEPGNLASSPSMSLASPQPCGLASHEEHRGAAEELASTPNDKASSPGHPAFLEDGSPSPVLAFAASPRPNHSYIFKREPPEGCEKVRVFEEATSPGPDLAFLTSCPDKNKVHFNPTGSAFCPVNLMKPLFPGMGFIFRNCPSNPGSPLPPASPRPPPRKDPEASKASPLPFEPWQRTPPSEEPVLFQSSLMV
UniProt Q13868, whole entry, looked up: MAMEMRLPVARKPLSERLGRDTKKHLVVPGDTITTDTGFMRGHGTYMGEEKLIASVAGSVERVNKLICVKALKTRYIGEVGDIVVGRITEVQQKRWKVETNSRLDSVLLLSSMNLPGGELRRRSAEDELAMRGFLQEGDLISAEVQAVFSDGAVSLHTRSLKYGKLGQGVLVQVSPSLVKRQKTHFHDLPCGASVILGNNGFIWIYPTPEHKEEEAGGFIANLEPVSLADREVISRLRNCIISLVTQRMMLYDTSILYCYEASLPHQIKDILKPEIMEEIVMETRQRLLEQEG
UniProt A0FGR8: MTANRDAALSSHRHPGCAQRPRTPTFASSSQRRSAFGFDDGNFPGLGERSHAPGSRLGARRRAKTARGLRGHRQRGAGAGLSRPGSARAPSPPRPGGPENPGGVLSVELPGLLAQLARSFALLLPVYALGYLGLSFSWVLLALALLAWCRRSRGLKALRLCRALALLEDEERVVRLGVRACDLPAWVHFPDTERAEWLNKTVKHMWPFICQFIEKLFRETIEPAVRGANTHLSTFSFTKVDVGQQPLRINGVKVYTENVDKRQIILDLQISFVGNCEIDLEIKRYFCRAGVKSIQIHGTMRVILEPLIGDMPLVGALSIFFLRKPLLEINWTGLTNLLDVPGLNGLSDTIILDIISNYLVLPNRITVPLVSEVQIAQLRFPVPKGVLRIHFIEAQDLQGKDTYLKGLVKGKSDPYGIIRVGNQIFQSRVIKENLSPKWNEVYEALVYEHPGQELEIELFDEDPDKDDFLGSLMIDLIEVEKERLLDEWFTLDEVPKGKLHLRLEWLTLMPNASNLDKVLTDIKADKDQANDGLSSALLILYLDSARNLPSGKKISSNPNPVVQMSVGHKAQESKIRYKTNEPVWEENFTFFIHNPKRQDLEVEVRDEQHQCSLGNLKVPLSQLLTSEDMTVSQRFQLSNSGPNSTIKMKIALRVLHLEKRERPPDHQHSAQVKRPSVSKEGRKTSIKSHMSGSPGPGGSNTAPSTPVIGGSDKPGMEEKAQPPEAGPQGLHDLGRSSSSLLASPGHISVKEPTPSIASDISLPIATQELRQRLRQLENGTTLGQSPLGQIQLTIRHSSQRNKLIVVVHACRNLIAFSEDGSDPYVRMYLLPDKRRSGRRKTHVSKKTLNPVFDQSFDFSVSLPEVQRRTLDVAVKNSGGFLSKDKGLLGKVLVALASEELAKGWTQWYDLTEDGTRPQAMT
UniProt P34913, whole entry, looked up: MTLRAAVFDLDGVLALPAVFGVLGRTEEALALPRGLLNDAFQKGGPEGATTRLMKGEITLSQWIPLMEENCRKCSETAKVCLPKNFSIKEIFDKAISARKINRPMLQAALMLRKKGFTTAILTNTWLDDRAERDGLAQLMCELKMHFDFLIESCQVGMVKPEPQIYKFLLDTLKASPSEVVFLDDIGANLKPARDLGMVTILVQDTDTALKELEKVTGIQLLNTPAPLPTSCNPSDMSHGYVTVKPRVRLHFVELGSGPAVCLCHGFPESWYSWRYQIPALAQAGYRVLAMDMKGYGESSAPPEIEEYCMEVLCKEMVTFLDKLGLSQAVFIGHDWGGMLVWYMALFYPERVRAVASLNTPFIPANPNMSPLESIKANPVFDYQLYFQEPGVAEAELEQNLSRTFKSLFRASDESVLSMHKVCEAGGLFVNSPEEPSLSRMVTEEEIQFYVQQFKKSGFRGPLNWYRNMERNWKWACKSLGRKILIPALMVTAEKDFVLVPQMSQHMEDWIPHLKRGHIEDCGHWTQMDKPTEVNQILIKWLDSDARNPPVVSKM
UniProt P12259: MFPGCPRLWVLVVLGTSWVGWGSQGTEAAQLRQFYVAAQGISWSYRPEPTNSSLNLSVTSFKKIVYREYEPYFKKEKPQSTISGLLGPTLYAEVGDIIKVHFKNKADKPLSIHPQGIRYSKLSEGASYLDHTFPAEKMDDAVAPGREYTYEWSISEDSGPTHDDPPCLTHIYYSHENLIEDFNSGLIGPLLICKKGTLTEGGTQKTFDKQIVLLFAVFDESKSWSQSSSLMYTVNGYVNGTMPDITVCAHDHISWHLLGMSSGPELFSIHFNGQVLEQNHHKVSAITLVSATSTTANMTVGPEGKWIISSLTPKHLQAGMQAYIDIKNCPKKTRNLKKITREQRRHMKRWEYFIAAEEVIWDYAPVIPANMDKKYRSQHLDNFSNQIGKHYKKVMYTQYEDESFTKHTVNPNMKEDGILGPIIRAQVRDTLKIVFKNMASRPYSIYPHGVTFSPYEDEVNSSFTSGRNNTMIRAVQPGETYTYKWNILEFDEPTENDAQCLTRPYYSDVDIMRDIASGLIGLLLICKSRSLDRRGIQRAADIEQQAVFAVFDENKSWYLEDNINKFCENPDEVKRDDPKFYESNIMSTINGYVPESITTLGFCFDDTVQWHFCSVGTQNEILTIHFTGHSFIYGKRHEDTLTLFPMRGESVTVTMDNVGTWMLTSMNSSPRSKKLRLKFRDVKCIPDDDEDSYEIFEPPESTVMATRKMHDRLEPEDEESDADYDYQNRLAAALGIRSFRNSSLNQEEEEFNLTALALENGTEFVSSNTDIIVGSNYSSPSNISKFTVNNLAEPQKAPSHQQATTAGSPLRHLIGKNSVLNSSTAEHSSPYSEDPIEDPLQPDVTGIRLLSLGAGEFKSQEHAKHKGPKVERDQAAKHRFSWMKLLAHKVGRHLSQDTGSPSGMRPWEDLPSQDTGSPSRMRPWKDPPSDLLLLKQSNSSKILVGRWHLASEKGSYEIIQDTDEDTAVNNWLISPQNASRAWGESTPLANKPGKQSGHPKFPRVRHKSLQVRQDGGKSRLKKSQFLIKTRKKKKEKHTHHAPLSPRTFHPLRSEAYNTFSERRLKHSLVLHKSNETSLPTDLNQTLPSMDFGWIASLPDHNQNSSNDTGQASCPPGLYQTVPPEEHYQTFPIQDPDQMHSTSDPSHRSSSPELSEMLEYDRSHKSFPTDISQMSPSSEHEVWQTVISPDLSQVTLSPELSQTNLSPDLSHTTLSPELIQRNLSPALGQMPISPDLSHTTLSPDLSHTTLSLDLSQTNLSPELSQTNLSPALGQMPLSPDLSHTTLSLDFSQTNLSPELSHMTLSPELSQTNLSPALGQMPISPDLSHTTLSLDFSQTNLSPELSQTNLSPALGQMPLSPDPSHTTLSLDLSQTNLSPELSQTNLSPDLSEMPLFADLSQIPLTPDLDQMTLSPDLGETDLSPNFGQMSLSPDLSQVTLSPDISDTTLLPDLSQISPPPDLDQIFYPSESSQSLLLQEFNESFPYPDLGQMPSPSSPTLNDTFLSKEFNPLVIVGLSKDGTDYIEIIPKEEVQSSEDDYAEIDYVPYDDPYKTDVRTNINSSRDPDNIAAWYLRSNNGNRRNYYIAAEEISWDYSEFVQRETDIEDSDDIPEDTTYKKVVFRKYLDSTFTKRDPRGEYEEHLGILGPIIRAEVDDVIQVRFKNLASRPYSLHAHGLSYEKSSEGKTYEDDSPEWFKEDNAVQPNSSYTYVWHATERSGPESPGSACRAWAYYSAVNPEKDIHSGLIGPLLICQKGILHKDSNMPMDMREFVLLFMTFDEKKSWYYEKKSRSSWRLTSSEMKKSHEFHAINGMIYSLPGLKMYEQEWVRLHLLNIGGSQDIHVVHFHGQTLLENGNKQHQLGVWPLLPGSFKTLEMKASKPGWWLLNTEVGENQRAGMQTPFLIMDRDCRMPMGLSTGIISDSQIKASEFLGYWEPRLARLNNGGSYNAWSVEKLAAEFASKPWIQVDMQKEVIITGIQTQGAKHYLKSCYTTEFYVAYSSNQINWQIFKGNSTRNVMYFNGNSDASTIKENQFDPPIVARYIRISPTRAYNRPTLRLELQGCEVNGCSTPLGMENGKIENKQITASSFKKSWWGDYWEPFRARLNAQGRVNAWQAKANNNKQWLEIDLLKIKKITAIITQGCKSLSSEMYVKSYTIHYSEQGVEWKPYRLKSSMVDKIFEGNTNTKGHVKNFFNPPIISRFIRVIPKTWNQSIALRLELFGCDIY
UniProt Q6IPR1: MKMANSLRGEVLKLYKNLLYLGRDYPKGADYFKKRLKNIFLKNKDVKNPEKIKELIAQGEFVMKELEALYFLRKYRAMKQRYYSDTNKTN
UniProt Q9GZU8: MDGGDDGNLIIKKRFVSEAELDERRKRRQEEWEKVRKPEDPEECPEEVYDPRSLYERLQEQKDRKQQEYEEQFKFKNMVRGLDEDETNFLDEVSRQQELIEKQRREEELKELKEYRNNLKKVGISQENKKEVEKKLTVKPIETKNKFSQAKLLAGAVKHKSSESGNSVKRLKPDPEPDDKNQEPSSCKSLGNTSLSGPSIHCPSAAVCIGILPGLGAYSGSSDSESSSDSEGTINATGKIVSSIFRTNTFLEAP
UniProt Q13216, whole entry, looked up: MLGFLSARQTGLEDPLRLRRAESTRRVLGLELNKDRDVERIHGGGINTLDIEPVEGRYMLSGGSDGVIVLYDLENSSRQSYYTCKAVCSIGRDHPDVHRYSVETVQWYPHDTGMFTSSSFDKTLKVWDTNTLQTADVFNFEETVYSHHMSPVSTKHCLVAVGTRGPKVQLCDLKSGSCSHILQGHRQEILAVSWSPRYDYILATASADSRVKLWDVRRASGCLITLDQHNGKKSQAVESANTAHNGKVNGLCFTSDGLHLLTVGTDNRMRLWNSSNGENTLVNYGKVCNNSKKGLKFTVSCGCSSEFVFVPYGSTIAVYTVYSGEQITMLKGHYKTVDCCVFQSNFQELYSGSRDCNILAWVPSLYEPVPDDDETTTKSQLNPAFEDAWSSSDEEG
UniProt P38117: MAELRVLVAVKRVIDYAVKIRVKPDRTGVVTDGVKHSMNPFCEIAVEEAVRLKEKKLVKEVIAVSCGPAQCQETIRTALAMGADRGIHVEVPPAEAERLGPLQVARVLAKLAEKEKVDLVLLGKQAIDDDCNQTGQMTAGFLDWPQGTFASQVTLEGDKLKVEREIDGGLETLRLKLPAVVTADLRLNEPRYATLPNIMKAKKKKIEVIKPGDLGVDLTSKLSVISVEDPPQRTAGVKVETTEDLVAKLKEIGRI

Key:
Test in all cases: log2 fold change, soluble protein after heating vs DMSO (PISA); higher = thermal stabilisation; K562 cells, 10 uM, 30 min; active = over 0.2 and 3.5 SD of the protein, either way, in both replicates (recomputed)
[1] = compound: C1=CC=C(C=C1)[C@H](COC2=CC3=C(C=C2)NC(=O)N3)NC(=O)C4=CC=CN(C4=O)CC5=CC(=C(C=C5)F)F
Method in brief: (§1)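 Aliquots of K562 cells (2×10^6 cells/mL) treated with 10 μM compound for 30 min were heated for 3 min over 48°C-58°C. After pooling and extraction in PBS with 0.5% NP-40 at 4°C, soluble protein from a 21,000xg, 90 min spin was quantified by TMTpro 16plex LC-MS/MS with channel sums equalised. Thermal stability is expressed against control samples, from duplicates, as a log2 fold change.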

[2] = compound: CC1=C(SC2=C1C(=N[C@H](C3=NN=C(N32)C)CC(=O)N)C4=CC=C(C=C4)Cl)C
Method in brief: as §1

[3] = compound: CC1=C2C(=CC=C1)N=C(N(C2=O)C3=CC=CC=C3C)CN4C=NC5=C(N=CN=C54)N
Method in brief: as §1

[4] = compound: Cc1sc2c(c1C)C(c1ccc(Cl)cc1)=N[C@@H](CC(=O)OC(C)(C)C)c1nnc(C)n1-2
Method in brief: as §1

[5] = compound: c1ccc([C@@H]2C[C@H]2NC2CCNCC2)cc1
Method in brief: as §1

Measured: log2 fold change

EXOC2 (UniProt Q96KP1)
inactive: [1] -0.054 | [2] 0.025 | [3] 0.03 | [4] 0.033 | [5] 0.011

EXOSC5 (UniProt Q9NQT4)
inactive: [1] -0.004 | [2] 0.005 | [3] -0.036 | [4] 0.018 | [5] -0.033

FAM117A (UniProt Q9C073)
inactive: [1] -0.004 | [2] 0.057 | [3] 0.027 | [4] 0.01 | [5] 0.012

ERCC4 (UniProt Q92889)
inactive: [1] -0.057 | [2] 0.125 | [3] 0.273 | [4] 0.123 | [5] 0

EXOSC2 (UniProt Q13868)
inactive: [1] 0.047 | [2] -0.004 | [3] 0.066 | [4] -0.033 | [5] 0.028

EXOC6 (UniProt Q8TAG9)
inactive: [1] -0.088 | [2] -0.006 | [3] 0.072 | [4] 0.031 | [5] -0.069

ESYT2 isoform 2 (UniProt A0FGR8)
inactive: [1] 0.002 | [2] 0.054 | [3] 0.042 | [4] 0.001 | [5] -0.013

EPHX2 (UniProt P34913)
inactive: [1] -0.015 | [2] 0.091 | [3] 0.052 | [4] 0.143 | [5] -0.002

FABP5 (UniProt Q01469)
inactive: [1] -0.044 | [2] -0.005 | [3] -0.05 | [4] -0.007 | [5] -0.018

F5 (UniProt P12259)
inactive: [1] -0.025 | [2] -0.091 | [3] 0.003 | [4] 0.077 | [5] 0.014

ETFRF1 (UniProt Q6IPR1)
inactive: [1] 0.059 | [2] 0.097 | [3] -0.006 | [4] 0.045 | [5] -0.014

EZH2 isoform 2 (UniProt Q15910)
inactive: [1] 0.023 | [2] -0.056 | [3] -0.14 | [4] 0.016 | [5] -0.034

EPM2AIP1 (UniProt Q7L775)
inactive: [1] 0.005 | [2] 0.034 | [3] 0.074 | [4] -0.005 | [5] 0.004

F9 (UniProt P00740)
inactive: [1] 0.079 | [2] -0.03 | [3] 0.186 | [4] -0.007 | [5] 0.19

7 neighbouring records from above, quoted:
EXOSC2 (UniProt Q13868)
inactive: [1] 0.047 | [2] -0.004 | [3] 0.066 | [4] -0.033 | [5] 0.028

EXOC6 (UniProt Q8TAG9)
inactive: [1] -0.088 | [2] -0.006 | [3] 0.072 | [4] 0.031 | [5] -0.069

ESYT2 isoform 2 (UniProt A0FGR8)
inactive: [1] 0.002 | [2] 0.054 | [3] 0.042 | [4] 0.001 | [5] -0.013

EPHX2 (UniProt P34913)
inactive: [1] -0.015 | [2] 0.091 | [3] 0.052 | [4] 0.143 | [5] -0.002

FABP5 (UniProt Q01469)
inactive: [1] -0.044 | [2] -0.005 | [3] -0.05 | [4] -0.007 | [5] -0.018

F5 (UniProt P12259)
inactive: [1] -0.025 | [2] -0.091 | [3] 0.003 | [4] 0.077 | [5] 0.014

ETFRF1 (UniProt Q6IPR1)
inactive: [1] 0.059 | [2] 0.097 | [3] -0.006 | [4] 0.045 | [5] -0.014

The listing continues.

FAM192A (UniProt Q9GZU8)
inactive: [1] 0.004 | [2] 0 | [3] 0.007 | [4] 0.01 | [5] 0.017

EXOC5 (UniProt O00471)
inactive: [1] -0.069 | [2] -0.006 | [3] 0.07 | [4] 0.066 | [5] -0.018

ERCC8 (UniProt Q13216)
inactive: [1] 0.016 | [2] -0.058 | [3] 0.138 | [4] -0.272 | [5] 0.056

ETFB (UniProt P38117)
inactive: [1] -0.019 | [2] 0.03 | [3] 0.026 | [4] 0.028 | [5] 0.007

ERCC6 (UniProt Q03468)
inactive: [1] 0.013 | [2] -0.025 | [3] -0.018 | [4] -0.008 | [5] 0.151

ERG28 (UniProt Q9UKR5)
inactive: [1] -0.071 | [2] -0.262 | [3] 0.002 | [4] -0.008 | [5] 0.2

FAF1 (UniProt Q9UNN5)
inactive: [1] -0.005 | [2] 0.011 | [3] 0.031 | [4] 0.003 | [5] 0.005

ERBIN isoform 8 (UniProt Q96RT1)
inactive: [1] -0.011 | [2] 0.06 | [3] 0.116 | [4] 0.002 | [5] 0.002

FAM136A (UniProt Q96C01)
inactive: [1] -0.029 | [2] 0.014 | [3] 0.041 | [4] -0.069 | [5] -0.035

EXOSC8 (UniProt Q96B26)
inactive: [1] 0.017 | [2] -0.003 | [3] -0.03 | [4] 0.024 | [5] 0.017
